The source of these data is publication PMC11116102, “A naturally occurring variant of SHLP2 is a protective factor in Parkinson’s disease” (Molecular Psychiatry, 2024).

By UniProt entry, the sequences of proteins in these tests, tags left out. Residues count along the entry.
UniProt Q3ZCQ8, residues 45-353: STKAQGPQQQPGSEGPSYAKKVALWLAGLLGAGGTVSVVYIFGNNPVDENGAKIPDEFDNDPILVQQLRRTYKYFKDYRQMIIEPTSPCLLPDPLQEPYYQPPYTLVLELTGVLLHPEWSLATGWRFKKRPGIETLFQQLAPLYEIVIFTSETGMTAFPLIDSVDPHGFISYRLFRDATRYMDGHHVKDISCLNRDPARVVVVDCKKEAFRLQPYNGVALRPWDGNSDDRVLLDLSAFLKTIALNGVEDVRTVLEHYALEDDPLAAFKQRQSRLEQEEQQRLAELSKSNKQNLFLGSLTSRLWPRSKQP

No constants are given. Whether binding was seen depends on the method and setting. Binding seen in cells or lysates may run through a third protein. A yes stands for co-enrichment or nearness to the bait. Other partners may have been found.

First the molecules themselves.
T1: Small Humanin-like Peptide 2 (SHLP2), synthetic peptide (human)
T1 sequence (peptide): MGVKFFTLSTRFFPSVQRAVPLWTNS

B1: Timm9 (protein, UniProt Q9Y5J7 1-89)
chain: MAAQIPESDQIKQFKEFLGTYNKLTETCFLDCVKDFTTREVKPEETTCSEHCLQKYLKMTQRISMRFQEYHIQQNEALAAKAGLLGQPR
B2: Timm10B (protein, UniProt Q9Y5J6 1-103)
chain: MERQQQQQQQLRNLRDFLLVYNRMTELCFQRCVPSLHHRALDAEEEACLHSCAGKLIHSNHRLMAAYVQLMPALVQRRIADYEAASAVPGVAAEQPGVSPSGS
B3: Timm10 (protein, UniProt P62072 1-90)
chain: MDPLRAQQLAAELEVEMMADMYNRMTSACHRKCVPPHYKEAELSKGESVCLDRCVSKYLDIHERMGKKLTELSMQDEELMKRVQQSSGPA

The target of the experiment is T1, Small Humanin-like Peptide 2 (SHLP2), synthetic peptide (human). Kind of experiment: affinity purification with mass spectrometry; SHLP2 peptide (control: scrambled peptide) pre-immobilized on agarose beads (CarboxyLink kit); 1.6-1.9 mg of HEK293 mitochondrial protein extract (0.1% NP-40 lysis buffer) incubated in the column at 4 C overnight; eluate analysed by mass spectrometry; only the target purified.
For Tim50 (from UniProt Q3ZCQ8 45-353), the binding result is recorded as “binds”.

Take B1: the binding entry is “binds”.

With B2, the binding entry is “binds”.

In the case of B3, the binding result was “binds”.
